Test results as given in PubChem BioAssay AID1347076 (National Center for Advancing Translational Sciences (NCATS), 2019).
Hit rate of the full screen: of about 400,000 compounds, about 13,000 (3.2%) were called active. This list was built around the results that the source calls inconclusive (neither active nor inactive); the mix of calls is not that of the screen. Calls follow the shape of the dose curve; as a rule, active = well fitted cell-killing curve with a large enough effect; inconclusive = small, poorly fitted or top-dose-only effect, or effect the other way; inactive = flat fitted curve, though single readings scatter. Potencies of inconclusive entries are doubtful fits and often do not repeat.
% is scaled to controls: 0 for no effect and ±100 for the full control effect; potency is read from the fitted curve at half-maximal effect.

Assay: qHTS assay for MDR1-selective chemotherapeutics: Primary screen using the drug-selected MDR subline cells KB-V1; also: nearly all actives have a fitted effect of over 60% in size
Settings: KB-V1 MDR cells viability, CellTiter-Glo, 72 h; activity change, negative = cytotoxicity: at 46.1 µM (top of the series)
How it was run: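 KB-V1 MDR subline cells in DMEM (phenol-red free, 10% FBS) exposed to compounds in qHTS concentration series for 72 h at 37 degrees C. Viability read by CellTiter-Glo luminescence; concentration-effect curves fitted after normalization and correction.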
In the case of Cc1ccc(OC(F)F)c(NC(=O)Nc2ccc3c(c2)OCO3)c1, the Potency is reported as inconclusive: 29.1 µM [cytotoxic, single point]. For Cc1nc2ncnn2c(C)c1Cc1cccc(C(F)(F)F)c1, the Potency was “inactive”. In the case of Cc1c(C)c2ccc(OCC(=O)N(C)C3CCS(=O)(=O)C3)c(C)c2oc1=O (stereo not drawn), the Potency is reported as “inactive”. For CCc1ccc(NC(=O)C(C)OC(=O)C2CCN(c3ccc(C(F)(F)F)cn3)CC2)cc1 (stereo not drawn), the Potency was “inactive”. In the case of Cn1c(CCN2CCOCC2)nc2cc(NS(=O)(=O)c3ccccc3)ccc21, the Potency is reported as inconclusive: 32.6 µM [cytotoxic, single point]. For COc1ccc(-n2c(C)nc3cc(C(=O)NCc4ccc5c(c4)OCO5)ccc32)cc1, the Potency was “inactive”. With COc1ccc(C)cc1NC(=O)C(NC(=O)c1cc(OC)c(OC)c(OC)c1)C(C)C (stereo not drawn) the Potency was inconclusive: 2.59 µM [cytotoxic, partial curve]. In the case of COC(=O)c1c(NC(=O)CN2CCC3(O)CCCCC3C2c2ccc(OC)cc2OC)sc(C)c1C (stereo not drawn), the Potency is reported as inconclusive: 23.1 µM [cytotoxic, partial curve, poor fit]. For CCOCCCNC(=O)c1ccc(OC)c(OC2CCN(C(C)C)CC2)c1, the Potency was “inactive”. In the case of O=S(=O)(c1ccc2ccccc2c1)N1CCN(C2CCN(Cc3ccccc3)CC2)CC1, the Potency is reported as active: 7.31 µM. For COc1ccc(CCNC(=O)CCC(=O)n2ncc3ccc(Cl)cc32)cc1OC, the Potency was “inactive”. With CCc1nnc(SCC(=O)Nc2ccc(F)cc2F)c2cc3sc(C)cc3n12 the Potency was inconclusive: 23.1 µM [rising, single point]. With COC(=O)c1sc(S(=O)(=O)N2CCN(c3ccccc3)CC2)c(C(=O)OC)c1C the Potency was active: 8.2 µM. With CCCc1cc(C(=O)N/N=C/c2ccc(C)o2)c2ccccc2n1 the Potency was inconclusive: 16.4 µM [cytotoxic, single point]. With Cc1ccc2c(CN(C)Cc3ccc(Cl)cc3Cl)cc(=O)oc2c1 the Potency was inconclusive: 8.2 µM [cytotoxic, partial curve]. In the case of O=C(Cc1cccc(C(F)(F)F)c1)NCc1ccc(Cl)cc1Cl, the Potency is reported as inconclusive: 16.4 µM [cytotoxic, single point]. With O=C(CCc1ccc(Oc2cc([N+](=O)[O-])cc([N+](=O)[O-])c2)cc1)N1CCCCC1 the Potency was inconclusive: 23.1 µM [cytotoxic, single point]. With Cc1cccc(C(=O)NCC(=O)N2CCN(c3ccc(Cl)cc3)CC2)c1 the Potency was “inactive”. In the case of Cc1ccc2c(Cl)cc(Cl)c(OCC(=O)N(C(C)C)C(C)C)c2n1, the Potency is reported as inconclusive: 16.4 µM [cytotoxic, partial curve]. With CCS(=O)(=O)Nc1ccc(C2=NN(C(=S)Nc3ccccc3)C(c3ccco3)C2)cc1 (stereo not drawn) the Potency was active: 13 µM. For COC(=O)COc1cccc(NC(=O)C(c2ccccc2)c2ccccc2)c1, the Potency was “inactive”. In the case of O=C(Cc1ccccc1)Nc1ccc2c(c1)OC1(CCCC1)O2, the Potency is reported as inconclusive: 20.6 µM [cytotoxic, single point]. For CC1CC(C)CN(C(=O)COC(=O)c2ccc3c(c2)OCO3)C1 (stereo not drawn), the Potency was “inactive”. With CN(C)CCCNC(=O)N1c2ccccc2Sc2ccccc21 the Potency was “inactive”. In the case of COc1ccc(Nc2cc(C(=O)NCc3ccccc3OC)c3ccccc3n2)cc1, the Potency is reported as “inactive”. In the case of Cc1ccc(Cl)cc1NC(=O)CSC(N)=O, the Potency is reported as “inactive”. In the case of Cc1cccc(-c2ocnc2C(=O)Nc2ccccc2NC(=O)c2ccccn2)c1, the Potency is reported as inconclusive: 11.6 µM [cytotoxic, partial curve]. For COc1ccc(S(=O)(=O)NC2CC3CCC2C3)cc1 (stereo not drawn), the Potency was inconclusive: 14.6 µM [cytotoxic, partial curve, poor fit]. With O=S(=O)(NCc1cn2ccsc2n1)c1ccc(Oc2ccccc2)cc1 the Potency was “inactive”. For Cc1cc(C)cc(NC2=CC(=O)CC(c3ccco3)C2)c1 (stereo not drawn), the Potency was active: 16.4 µM. For CC1(C)Cc2c(cnn2-c2ccc(F)cc2)C(NC(=O)CN2CCCC2=O)C1 (stereo not drawn), the activity change, negative = cytotoxicity was inconclusive: 37%. In the case of CCN(CC)C(=S)Sc1c(-c2ccccc2)c2cc(Cl)ccc2[nH]c1=O, the Potency is reported as inconclusive: 25.9 µM [cytotoxic, single point]. For COc1cc(S(=O)(=O)N2CCOCC2)ccc1NC(=O)COC(=O)c1ccc(Cl)nc1, the Potency was “inactive”. For COc1ccc(OCc2cc(=O)[nH]c3ccccc23)cc1, the Potency was inconclusive: 16.4 µM [cytotoxic, single point]. In the case of CC(C(=O)NCc1ccccc1F)n1ccc2cc(S(=O)(=O)N3CCCC3)ccc21 (stereo not drawn), the Potency is reported as “inactive”. In the case of CC(C)NC(=S)NC(=O)c1ccc(Cl)cc1Cl, the Potency is reported as inconclusive: 29.1 µM [cytotoxic, single point]. With COc1cccc(NC(=S)/C(=C(\[O-])c2cc(C)n(-c3ccccc3F)c2C)[n+]2ccc(N(C)C)cc2)c1 the Potency was “inactive”. With Cc1nn(Cc2ccccc2)c(C)c1NC(=O)c1cc(-c2cccs2)on1 the Potency was active: 4.11 µM. For CN1CCN(CC(=O)c2cc(C(C)(C)C)c(O)c(C(C)(C)C)c2)CC1, the Potency was inconclusive: 14.6 µM [cytotoxic, partial curve, poor fit]. For CC1(C)CC(=O)c2cnc(NCc3ccco3)nc2C1, the Potency was inconclusive: 29.1 µM [cytotoxic, single point]. For CC1(C)Cc2c(C#N)c(N3CCOCC3)nc(-c3ccccc3)c2CO1, the Potency was inconclusive: 18.4 µM [cytotoxic, partial curve]. In the case of CC(C)(C)NC(=O)C(c1ccc(F)cc1)N(CCc1ccccc1)C(=O)c1ccn[nH]1 (stereo not drawn), the Potency is reported as inconclusive: 29.1 µM [rising, single point]. For Cc1ccc(-c2c(C(=O)N/N=C/c3c[nH]c4ccccc34)nnn2-c2nonc2N)cc1, the Potency was “inactive”. With NS(=O)(=O)c1ccc(N2N=C(c3ccccc3)CC2c2cccc(F)c2)cc1 (stereo not drawn) the Potency was inconclusive: 25.9 µM [cytotoxic, single point]. In the case of CCCc1[nH]nc2c1C(c1cccnc1)C(C#N)=C(N)O2 (stereo not drawn), the Potency is reported as inconclusive: 29.1 µM [rising, single point]. With O=C(Cc1ccc(-n2c(=O)c3ccccc3n(Cc3ccc(F)cc3)c2=O)cc1)NCC1CCCO1 (stereo not drawn) the Potency was “inactive”. With C=C[C@@H]1c2c(F)cccc2N(S(=O)(=O)c2ccc(C)cc2)[C@H](c2ccc(C(=O)OC)cc2)C1(C#N)C#N the Potency was inconclusive: 18.4 µM [cytotoxic, partial curve]. With Cc1sc(N)nc1-c1cccs1 the Potency was “inactive”. With COc1ccccc1NC(=O)c1csc2c1CCCC2 the Potency was active: 16.4 µM. For O=C(Nc1ccc(NC(=O)c2ccco2)c(Cl)c1)c1ccccc1, the Potency was “inactive”. In the case of Cn1cc(Cl)c(C(=O)OCC(=O)Nc2nc(-c3ccc(Br)cc3)cs2)n1, the Potency is reported as inconclusive: 1.46 µM [cytotoxic, partial curve, poor fit]. In the case of O=C(/C=C/c1ccc(OCCCF)cc1)Nc1ccnc(-c2ccncc2)n1, the Potency is reported as inconclusive: 14.6 µM [cytotoxic, partial curve]. With O=C(Nc1nnc(-c2ccccc2)s1)C1CCCN(C(=O)c2ccoc2)C1 (stereo not drawn) the Potency was “inactive”. For CC(=NNC(=S)N1CC2CCC(CC2)C1)c1ccccn1, the Potency was inconclusive: 0.58 µM [cytotoxic, partial curve]. With O=C(/C=C/c1ccco1)Nc1cccc(-c2nc3ccccc3[nH]2)c1 the Potency was inconclusive: 13 µM [cytotoxic, partial curve, poor fit]. In the case of O=c1c(S(=O)(=O)c2ccccc2)cn(Cc2ccccc2)c2cc(N3CCOCC3)c(F)cc12, the Potency is reported as “inactive”. In the case of O=C(Cc1cccs1)NCc1cccc(CNC(=O)Cc2cccs2)c1, the Potency is reported as “inactive”. For CCC1/C(=N\O)CC(c2ccco2)NC1c1ccco1 (stereo not drawn), the Potency was inconclusive: 5.8 µM [rising, partial curve, poor fit]. With CCCN(CC(=O)Nc1ccccc1OC)C(=O)c1ccc(COc2ccccc2)o1 the Potency was inconclusive: 29.1 µM [cytotoxic, single point]. For CCC1CCCCN1C(=S)NC(=O)c1ccc(F)c(S(=O)(=O)N2CCOCC2)c1 (stereo not drawn), the Potency was inconclusive: 29.1 µM [cytotoxic, single point]. With COC(=O)c1cc(C(=O)Nc2nnc(C3CC3)s2)cc([N+](=O)[O-])c1 the Potency was “inactive”. With CCCCOc1ccccc1C(=O)N(Cc1ccc(C)o1)C1CCS(=O)(=O)C1 (stereo not drawn) the Potency was inconclusive: 29.1 µM [cytotoxic, single point]. With COc1cccc(COCC(O)CN2CCC(C(N)=O)CC2)c1 (stereo not drawn) the Potency was “inactive”. For O=C(Nc1ccc(Cl)cc1)N1CCCN(Cc2ccc(F)cc2)C1, the Potency was inconclusive: 29.1 µM [cytotoxic, single point]. In the case of O=C(O)C1CSC2(c3ccc(Br)cc3)CCC(=O)N12 (stereo not drawn), the Potency is reported as “inactive”. With O=C(c1cccc([N+](=O)[O-])c1)N1CCN(C/C=C/c2ccccc2)CC1 the Potency was inconclusive: 20.6 µM [cytotoxic, single point]. For Cc1cc(OCC(=O)OCC(=O)NCC2CCCO2)ccc1Cl (stereo not drawn), the Potency was “inactive”. For Cn1cc(C(=O)c2ccc(Cl)cc2Cl)cc1C(=O)N/N=C(\N)COc1ccc(Cl)cc1Cl, the Potency was inconclusive: 18.4 µM [cytotoxic, single point]. For COc1ccc(CNCc2cccc(C)c2)cc1, the Potency was inconclusive: 7.31 µM [cytotoxic, partial curve, poor fit]. For CCNCCNC(=O)c1c(O)c2ccccc2n(CC)c1=O, the Potency was inconclusive: 7.31 µM [cytotoxic, partial curve]. With NC(N)=N/N=C/c1ccc(OCc2ccc(Cl)cc2Cl)cc1 the Potency was inconclusive: 20.6 µM [cytotoxic, single point]. In the case of CCOCCCn1c(SCC(=O)Nc2ccc(NC(C)=O)cc2)nc2ccccc2c1=O, the Potency is reported as inconclusive: 29.1 µM [rising, single point]. For C=Cc1ccc(Cn2nc(-c3ccc(C)c(S(=O)(=O)N(CC)CC)c3)ccc2=O)cc1, the Potency was “inactive”.
